Results published in PubChem BioAssay AID1347076 (National Center for Advancing Translational Sciences (NCATS), 2019).
Among all 400,000 compounds or so, about 13,000 (3.2%) were called active. The shares of active, inactive and inconclusive entries below differ from those in the screen. Calls follow the shape of the dose curve; as a rule, active = well fitted cell-killing curve with a large enough effect; inconclusive = small, poorly fitted or top-dose-only effect, or effect the other way; inactive = flat fitted curve, though single readings scatter. Potencies of inconclusive entries are doubtful fits and often do not repeat.

Assay: qHTS assay for MDR1-selective chemotherapeutics: Primary screen using the drug-selected MDR subline cells KB-V1; also: nearly all actives have a fitted effect of over 60% in size
Conditions: KB-V1 MDR cells viability, CellTiter-Glo, 72 h; activity change, negative = cytotoxicity: at 46.1 µM (top of the series)
In short: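 KB-V1 cells (P-gp-expressing MDR subline of KB-3-1) in phenol-red-free DMEM with 10% FBS were exposed to library compounds over a concentration series for 72 h at 37 degrees C. Viability read by CellTiter-Glo luminescence; concentration-effect curves fitted after normalization.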
% is scaled to controls: 0 for no effect and ±100 for the full control effect; potency is read from the fitted curve at half-maximal effect.

Row | Compound | Potency | activity change, negative = cytotoxicity
1 | COc1ccc(CNC(=O)c2cc3cc(OC)ccc3oc2=O)cc1 | inconclusive: 29.1 µM [cytotoxic, single point] | –
2 | Cc1ccc(S(=O)(=O)n2nc(-c3ccc(Cl)cc3)nc2NCc2ccc(F)cc2)cc1 | inconclusive: 25.9 µM [cytotoxic, partial curve, poor fit] | –
3 | COc1ccc(Nc2nc(N)nc(CN3CCC(Cc4ccccc4)CC3)n2)cc1 | inactive | –
4 | CN(c1ccccc1)S(=O)(=O)c1cc(C(=O)OCC(=O)c2c(N)n(C)c(=O)n(C)c2=O)ccc1Cl | active: 16.4 µM | –
5 | Cn1c(N)c(C(=O)CSc2nn(-c3ccccc3)c(=S)s2)c(=O)n(C)c1=O | inconclusive: 20.6 µM [cytotoxic, single point] | –
6 | Cn1c(-c2ccccc2F)cc2onc(-c3ccccc3)c2c1=O | inconclusive: 32.6 µM [cytotoxic, single point] | –
7 | c1ccc(CNc2nc(-c3ccccn3)nc3ccccc23)cc1 | inactive | –
8 | O=C(CC1Nc2ccccc2NC1=O)NCCc1ccccc1 (centres undefined) | inconclusive: 23.1 µM [cytotoxic, partial curve, poor fit] | –
9 | Cn1c(=O)c2nc(-c3ccccc3)oc2c2ccccc21 | inconclusive: 29.1 µM [cytotoxic, single point] | –
10 | Clc1cccc(Cl)c1Cn1cnc2c(N3CCCCCC3)ncnc21 | active: 8.2 µM | –
11 | CC(C)C[C@@H]1NC(=O)[C@H](C(C)C)NC(=O)c2cc([N+](=O)[O-])cc(I)c2NCC[C@@H](C(N)=O)NC1=O | inactive | –
12 | COc1ccc2c(c1)cc1c(=O)n(CC(=O)NC(C)CCc3ccccc3)nc(C)n12 (centres undefined) | inconclusive: 29.1 µM [rising, single point] | –
13 | CCN(CC)CCCN=C1N[C@@H](c2cccc(F)c2)C(C(=O)OC)=C(C)N1Cc1ccccc1 | inconclusive: 29.1 µM [rising, single point] | –
14 | CCCSCCCNC(=O)C1CCN(c2nc3ccccc3nc2C(F)(F)F)CC1 | inactive | –
15 | CCCCn1cnc2cc(NCc3ccccc3Cl)ccc21 | inactive | –
16 | COc1ccc(-c2[nH]c(-c3ccc(Cl)cc3)nc2SCC(=O)NCC2CCCO2)cc1 (centres undefined) | inactive | –
17 | COc1ccc(N2CCN(C(=O)/C=C/c3ccco3)CC2)cc1 | inconclusive: 0.0058 µM [rising, full curve, poor fit] | –
18 | COc1cnc(-c2ccccn2)nc1Sc1cccc(Cl)c1 | – | inconclusive: -45.8%
19 | N/C(=N\c1nnc(-c2ccncc2)s1)Nc1ccc(Cl)c(Cl)c1 | inactive | –
20 | Cc1oc(-c2cccc(Cl)c2)nc1CN1CCCC(C(=O)NCCCN2CCOCC2)C1 (centres undefined) | active: 13 µM | –
21 | Cc1ccc(C)c(NC(=O)CN(C)C(=O)c2ccccc2OCc2ccccc2Cl)c1 | inconclusive: 7.31 µM [cytotoxic, partial curve] | –
22 | CSc1ncc(C(=O)NCc2ccccc2F)c(-c2ccccc2)n1 | inconclusive: 3.66 µM [cytotoxic, partial curve, poor fit] | –

Row | Compound | Potency | activity change, negative = cytotoxicity
23 | Cc1ccc(C)c(N2CCN(S(=O)(=O)c3ccc4c(c3)C(C(C)C)C(=O)N4)CC2)c1 (centres undefined) | inconclusive: 16.4 µM [cytotoxic, single point] | –
24 | CCCCc1[nH]c(=O)c(C#N)c2c1CCCC2 | inconclusive: 23.1 µM [cytotoxic, single point] | –
25 | O=C(Nc1c[nH]c(=O)[nH]c1=O)c1ccccc1Cl | active: 16.4 µM | –
26 | O=C(CC1S/C(=N\S(=O)(=O)c2ccccc2)N(c2ccccc2)C1=O)Nc1ccc(F)cc1 (centres undefined) | inactive | –
27 | C=CCOc1ccc(C(=O)O)cc1Cl | inconclusive: 29.1 µM [rising, single point] | –
28 | CCc1ccccc1NS(=O)(=O)c1ccc2[nH]cc(C(=O)N(CC)Cc3ccccc3)c(=O)c2c1 | inconclusive: 6.51 µM [rising, full curve] | –
29 | O=C(Nc1nc2c(F)cc(F)cc2s1)c1ccccn1 | inconclusive: 3.66 µM [cytotoxic, partial curve] | –
30 | COC(=O)[C@@]12CCCCN1[C@H](c1ccc(-c3ccccc3)cc1)[C@H]1C(=O)N(C)C(=O)[C@H]12 | inconclusive: 23.1 µM [cytotoxic, single point] | –
31 | COC(=O)c1ccc(CSC2=NCCS2)cc1 | inactive | –
32 | C=CCNC(=O)c1onc(CSc2nc3ccccc3[nH]2)c1C(=O)NCC=C | inconclusive: 5.8 µM [rising, full curve, poor fit] | –
33 | Cc1cc(-c2nc3cccnc3s2)ccc1NS(=O)(=O)c1cccs1 | inactive | –
34 | COc1ccc(N2CCN(C(=O)c3cccc(S(=O)(=O)N4CCOCC4)c3)CC2)cc1 | – | inconclusive: -19.2%
35 | CC(C)C(=O)NC(=S)Nc1ccc(S(=O)(=O)NC2CCCCC2)cc1 | inconclusive: 1.64 µM [cytotoxic, full curve] | –
36 | Cc1ccc(C(C(=O)NCc2ccco2)N(C(=O)CNC(=O)c2cccs2)c2c(C)cc(C)cc2C)cc1 (centres undefined) | inconclusive: 29.1 µM [cytotoxic, single point] | –
37 | CCOC(=O)c1ccc(N=c2sc(C(=O)OC)cc(=O)n2Cc2ccc3c(c2)OCO3)cc1 | inactive | –
38 | CCOC(=O)C(C)(C)n1nnc(-c2ccc([N+](=O)[O-])cc2)n1 | inconclusive: 18.4 µM [cytotoxic, single point] | –
39 | O=C(Cc1cc(C(=O)O)c2ccccc2n1)Nc1ccccc1 | inconclusive: 32.6 µM [cytotoxic, single point] | –
40 | Cc1cc(C)nc(Sc2ncnc3sc4c(c23)CCC4)n1 | inconclusive: 6.51 µM [cytotoxic, partial curve] | –
41 | Cc1ccc(CNC(=O)CCNS(=O)(=O)c2ccc(Br)s2)cc1 | inconclusive: 20.6 µM [rising, single point] | –
42 | CCc1ccc2occ(CC(=O)Nc3c(C(=O)c4ccc(C)cc4)oc4ccccc34)c2c1 | inactive | –
43 | COc1ccc(C2=NNC(c3cccnc3)=Nc3ccc(OC)cc32)cc1 | inconclusive: 29.1 µM [cytotoxic, single point] | –
44 | O=C(O)c1cccc(NC(=O)c2ccc(COc3ccc(Cl)cc3)cc2)c1 | inconclusive: 6.51 µM [rising, partial curve] | –

Pulled by structure from the entries so far (two):
Row | Compound | Potency | activity change, negative = cytotoxicity
34 | COc1ccc(N2CCN(C(=O)c3cccc(S(=O)(=O)N4CCOCC4)c3)CC2)cc1 | – | inconclusive: -19.2%
32 | C=CCNC(=O)c1onc(CSc2nc3ccccc3[nH]2)c1C(=O)NCC=C | inconclusive: 5.8 µM [rising, full curve, poor fit] | –
